Results: patent publication US20250073249A1, “STEROID COMPOUND, AND PREPARATION METHOD THEREFOR AND USE THEREOF” (SHANGHAI INSTITUTE OF MATERIA MEDICA, CHINESE ACADEMY OF …, priority 2022, published 2025)
Some results were stated once for a whole list of compounds, not compound by compound.

Tested on: LNCaP cells
Assay: In vitro LNCaP cell proliferation inhibition test (CellTiter-Glo)
Format: cell-based
Conditions: in words
Method: The cells were then digested with trypsin and counted using an automated cell counter to determine cell density. The cell suspension was diluted to the desired density in growth medium. Subsequently, 100 μL of the cell suspension was seeded into 96-well plates and incubated at 37° C. with 5% CO2 for 24 hours. 10 μL of drug solution (including 3-fold serial dilutions of compounds or DMSO) was added to each well, and the plates were incubated at 37° C. with 5% CO2 for 6 days. Prior to measurement, the assay plates were equilibrated to room temperature. 40 μL of CellTiter-Glo® reagent was added to each well. The plates were mixed on an orbital shaker for 2 minutes to induce cell lysis. After incubation at room temperature for 60 minutes to stabilize the luminescence signal, the plates were read on an Envision plate reader.

`Cc1cn(C2=CCC3C4CC=C5C[C@@H](NC(=O)c6ccc(F)cc6F)CC[C@]5(C)C4CC[C@]23C)cn1` (stereo partly drawn) [Compound 37, N-((3S,10R,13S)-17-(4-methyl-1H-imidazol-1-yl)-10,13-dimethyl-2,3,4,7,8,9,10,11,12,13,14,15-dodecahydro-1H-cyclopenta[a]phenanthren-3-yl)-2,4-difluorobenzamide] was tested, and the “Anti-tumor activity and efficacy compared to enzalutamide” value was “significantly superior anti-tumor activity and efficacy compared to enzalutamide”.
With `C[C@]12CC[C@H](NC(=O)c3ccnnc3)CC1=CCC1C2CC[C@]2(C)C(n3ccnc3)=CCC12` (stereo partly drawn) [Compound 16] the “Anti-tumor activity and efficacy compared to enzalutamide” value was “significantly superior anti-tumor activity and efficacy compared to enzalutamide”.
For `CCc1cn(C2=CCC3C4CC=C5C[C@@H](NC(=O)c6ccncc6)CC[C@]5(C)C4CC[C@]23C)cn1` (stereo partly drawn) [Compound 18, N-((3S,10R,13S)-17-(4-ethyl-1H-imidazol-1-yl)-10,13-dimethyl-2,3,4,7,8,9,10,11,12,13,14,15-dodecahydro-1H-cyclopenta[a]phenanthren-3-yl)isonicotinamide], the “Anti-tumor activity and efficacy compared to enzalutamide” value was “significantly superior anti-tumor activity and efficacy compared to enzalutamide”.
With `Cc1cn(C2=CCC3C4CC=C5C[C@@H](NC(=O)c6ccncc6)CC[C@]5(C)C4CC[C@]23C)cn1` (stereo partly drawn) [Compound 14, N-((3S,10R,13S)-10,13-dimethyl-17-(4-methyl-1H-imidazol-1-yl)-2,3,4,7,8,9,10,11,12,13,14,15-dodecahydro-1H-cyclopenta[a]phenanthren-3-yl)isonicotinamide] the “Anti-tumor activity and efficacy compared to enzalutamide” value was “significantly superior anti-tumor activity and efficacy compared to enzalutamide”.
For `CCc1cn(C2=CCC3C4CC=C5C[C@@H](NC(=O)c6ccnnc6)CC[C@]5(C)C4CC[C@]23C)cn1` (stereo partly drawn) [Compound 19], the “Anti-tumor activity and efficacy compared to enzalutamide” value was “significantly superior anti-tumor activity and efficacy compared to enzalutamide”.
For `C[C@]12CC[C@H](NC(=O)c3ccncc3)CC1=CCC1C2CC[C@]2(C)C(n3ccnc3)=CCC12` (stereo partly drawn) [Compound 17, N-((3S,10R,13S)-17-(1H-imidazol-1-yl)-10,13-dimethyl-2,3,4,7,8,9,10,11,12,13,14,15-dodecahydro-1H-cyclopenta[a]phenanthren-3-yl)isonicotinamide], the “Anti-tumor activity and efficacy compared to enzalutamide” value was “significantly superior anti-tumor activity and efficacy compared to enzalutamide”.
